Values of other authors in patent US10761045B2, “Sensor, sensor system, method of manufacturing sensor, and method of measuring concentration of target substance” (PHC Holdings Corporation, priority 2010, dated 2020).
At least one compound was matched to its structure with a doubt left.

Conditions: coenzymes and phenanthroline quinone, background values; cited from earlier work

For `NC(=O)c1ccc[n+]([C@@H]2O[C@H](COP(=O)([O-])OP(=O)(O)OC[C@H]3O[C@@H](n4cnc5c(N)ncnc54)[C@H](O)[C@@H]3O)[C@@H](O)[C@H]2O)c1` [NAD, nicotinamide adenine dinucleotide], the redox potential is listed as “approximately −520 mV”.
